The record followed here is PMC7901769.

For assay [1], the target named is T1, human TMEM39A second cytoplasmic loop domain (337-420 a.a.) (human) (UniProt Q9NV64).
T1 sequence: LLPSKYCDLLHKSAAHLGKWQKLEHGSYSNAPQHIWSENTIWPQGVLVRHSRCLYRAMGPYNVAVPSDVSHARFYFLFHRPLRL
The assay is described as follows: two-hybrid; verification by co-transformation of bait (pGBKT7) and prey (pGADT7) vectors, yeast colony growth.

Assay [2] concerns the target T1, human TMEM39A second cytoplasmic loop domain (337-420 a.a.) (human). As to the kind of experiment: two-hybrid; library screen: TMEM39A loop domains in pGBKT7 as bait against a normalized universal human cDNA library (Clontech), Matchmaker Gold Yeast Two-Hybrid System.

These are yes or no findings as the source states them, for the method shown. Some entries that bind do so weakly or less than the wild type.

B1: human Sec23A C-terminal domain (583-765 a.a.) (domain or fragment, UniProt Q15436 583-765)
chain: HLRRSSFLQVFNNSPDESSYYRHHFMRQDLTQSLIMIQPILYAYSFSGPPEPVLLDSSSILADRILLMDTFFQILIYHGETIAQWRKSGYQDMPEYENFRHLLQAPVDDAQEILHSRFPMPRYIDTEHGGSQARFLLSKVNPSQTHNNMYAWGQESGAPILTDDVSLQVFMDHLKKLAVSSAA
In the case of B1, the binding entry in assay [1] and in assay [2] was “binds” throughout.
